Measurements from patent US20220002438A1.
No constants are given. Whether binding was seen depends on the method and setting. Some results given as binding are weak or reduced against the parent protein; the word gives no strength.

What was measured:
[1] = target: T1, recombinant MuSK produced in E. coli (UniProt O15146); assay: antigen-specific single B cell sorting with labelled recombinant MuSK (E. coli, R-PE; yeast, DyLight 650); members from Table 3
T1 sequence (looked up): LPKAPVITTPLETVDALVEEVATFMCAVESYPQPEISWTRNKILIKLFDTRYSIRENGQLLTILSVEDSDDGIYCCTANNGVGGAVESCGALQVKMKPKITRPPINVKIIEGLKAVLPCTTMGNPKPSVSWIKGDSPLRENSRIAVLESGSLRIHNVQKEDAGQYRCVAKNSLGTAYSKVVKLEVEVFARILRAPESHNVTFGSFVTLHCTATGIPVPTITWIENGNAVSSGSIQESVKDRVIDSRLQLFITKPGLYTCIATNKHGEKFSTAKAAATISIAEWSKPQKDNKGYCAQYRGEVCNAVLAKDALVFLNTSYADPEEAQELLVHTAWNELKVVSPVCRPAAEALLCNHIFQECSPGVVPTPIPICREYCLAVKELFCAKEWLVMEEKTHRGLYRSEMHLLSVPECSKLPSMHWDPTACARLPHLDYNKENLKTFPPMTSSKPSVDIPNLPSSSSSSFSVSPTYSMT

[2] = target: T1, recombinant MuSK produced in E. coli; assay: ELISA, single B cell culture medium on coated recombinant MuSK (FIGS. 3 and 4)
MuSK produced in yeast = target: T2, MuSK produced in yeast (UniProt O15146); assay: ELISA, culture medium on yeast-produced MuSK, compared with AChR alpha subunit control antigen
T2 sequence (looked up): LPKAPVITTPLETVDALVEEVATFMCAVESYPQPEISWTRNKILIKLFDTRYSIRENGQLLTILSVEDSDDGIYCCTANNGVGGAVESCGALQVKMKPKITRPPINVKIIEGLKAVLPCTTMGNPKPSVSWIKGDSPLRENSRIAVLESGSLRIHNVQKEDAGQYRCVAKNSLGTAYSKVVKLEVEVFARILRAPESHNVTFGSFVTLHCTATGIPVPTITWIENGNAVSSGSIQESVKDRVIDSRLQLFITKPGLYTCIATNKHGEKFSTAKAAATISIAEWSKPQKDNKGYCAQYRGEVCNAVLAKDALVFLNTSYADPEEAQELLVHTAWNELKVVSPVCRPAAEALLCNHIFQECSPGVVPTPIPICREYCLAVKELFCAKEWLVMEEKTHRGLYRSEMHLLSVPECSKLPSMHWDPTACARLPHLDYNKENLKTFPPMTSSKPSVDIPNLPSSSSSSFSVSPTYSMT

[3] = target: T3, MuSK at mouse neuromuscular junctions (levator auris longus muscle) and endogenous MuSK of C2C12 myotubes (mouse) (UniProt Q61006); assay: immunostaining of isolated mouse levator auris longus muscle, confocal microscopy
T3 sequence (looked up): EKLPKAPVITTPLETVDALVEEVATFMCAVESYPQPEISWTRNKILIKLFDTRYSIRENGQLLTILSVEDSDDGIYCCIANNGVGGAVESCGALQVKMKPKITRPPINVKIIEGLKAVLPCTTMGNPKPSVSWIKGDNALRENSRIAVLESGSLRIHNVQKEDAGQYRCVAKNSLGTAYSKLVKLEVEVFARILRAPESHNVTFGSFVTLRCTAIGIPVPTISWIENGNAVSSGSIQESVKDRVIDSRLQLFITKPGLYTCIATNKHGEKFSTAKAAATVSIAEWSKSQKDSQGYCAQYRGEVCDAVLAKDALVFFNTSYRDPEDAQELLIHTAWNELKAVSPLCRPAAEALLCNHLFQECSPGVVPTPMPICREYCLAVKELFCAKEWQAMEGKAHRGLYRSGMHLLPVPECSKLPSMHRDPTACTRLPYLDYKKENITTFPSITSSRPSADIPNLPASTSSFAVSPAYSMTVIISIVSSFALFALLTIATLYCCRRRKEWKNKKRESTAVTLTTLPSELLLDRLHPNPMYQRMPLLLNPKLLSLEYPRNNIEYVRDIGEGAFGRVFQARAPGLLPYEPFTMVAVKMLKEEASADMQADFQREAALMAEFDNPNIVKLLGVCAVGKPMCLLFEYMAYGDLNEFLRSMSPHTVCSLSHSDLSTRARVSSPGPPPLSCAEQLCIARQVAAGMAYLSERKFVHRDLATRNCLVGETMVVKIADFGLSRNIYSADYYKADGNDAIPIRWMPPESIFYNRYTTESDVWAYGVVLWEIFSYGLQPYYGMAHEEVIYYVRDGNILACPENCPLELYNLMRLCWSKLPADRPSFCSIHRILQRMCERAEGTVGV

[4] = target: T3, MuSK at mouse neuromuscular junctions (levator auris longus muscle) and endogenous MuSK of C2C12 myotubes (mouse); assay: immunostaining of whole mount mouse levator auris longus muscle (FIG. 1, IgG4 recombinant antibodies shown)
[5] = target: T3, MuSK at mouse neuromuscular junctions (levator auris longus muscle) and endogenous MuSK of C2C12 myotubes (mouse); assay: staining of mouse NMJ in ex vivo levator auris longus muscle

B1: 11-3D9 (MuSK autoantibody clone from MuSK MG patient 1, B cell culture medium) (antibody, IgG1, V domains shown)
VH: EVQLVESGGGLVKPGESLRLSCAASGFNFSTYTMHWVRQAPGKGLEWVSSISSRSAYKYYADSVKGRFTISRDIAKNSLYLQMNSLRAEDTAVYYCARDFFQLGPPRFDSWGQGTLVTVSS
VL: DIQMTQSPSSLSASIGDRVTISCRASQRISSFLNWYQQKPGKPPNLLIYGASNLQSGVPSRFSGSGSGTDFTLTITSLQPEDYAIYYCQQSYSPMYTFGQGTSLEIK
[1]
  binding: binds
[2]
  binding: binds
MuSK produced in yeast
  binding: binds

B2: 11-3F6 (MuSK autoantibody clone from MuSK MG patient 1, B cell culture medium) (antibody, IgG1, V domains shown)
VH: EVQLVESGGGLVKPGGSLRLSCAASGFTFSSYTMDWVRQAPGKGLEWVSSIGSNGDYIYYADSVRGRFTISRDNAKNSLYLQMNSLRPDDTADYYCARGQLAVAGTHFDYWGRGSLVTVSS
VL: DIQMTQSPSSLSASVGDRVTISCRASQKVNKYVNWYQQTPGKAPRLLIYAASTLQSGVPSRFSGSGSGANFTLTISGLQPEDFAIYFCQQSYSPLCTFGQGTKLEIK
[1]
  binding: binds
[2]
  binding: binds
MuSK produced in yeast
  binding: binds

B3: 13-3B5 (MuSK autoantibody clone from MuSK MG patient 1, B cell culture medium) (antibody, IgG4, V domains shown)
VH: QVQLVQSGAVVAKPGASVQVSCKTSGYTFTGQYLHWVRQAPGQGLEWIGWINPSSGVTKFAEKFEGRATMTRDTSITTAYIDLRSLRSDDTATYYCATLSLGVYYVGMVAWGQGTLVTVSS
VL: SYELTQPPSVSVSPGQTATITCSGDGLAQQHVYWFQQRPGQAPLLIIYKDIERPSGIPERFSGSSSGTTAMLTISGVQAEDEADYYCQSGDRTATSVLFGGGTKMTVL
[1]
  binding: binds
[2]
  binding: binds

B4: 13-3D10 (MuSK autoantibody clone from MuSK MG patient 1, B cell culture medium) (antibody, IgG1, V domains shown)
VH: EDLLVESGGGLVKPGQSLTLSCAASGFDFSASTMAWVRQAPGKGLEWVASVSGDSHHIYYADSLKGRFTLSRDNARNSFFLEMNSLRAEDTAVYYCARERLLRLGVGFDSWGQGSLVAVSS
VL: DIHMTQSPSSLSSSVGDRVTMTCRASQRISGFVNWYQQKPGRAPTLLISAASTLQSGVPSRFSGSASGTDFTLTISGLQPEDSAIYYCQQSYSPLYTFGQGTKVEIK
[1]
  binding: binds
[2]
  binding: binds

B5: 13-4D3 (MuSK autoantibody clone from MuSK MG patient 1, B cell culture medium) (antibody, IgG3, V domains shown)
VH: EVQLMESGGGLVKPGGSLRLSCTASGFTFSSYTMTWVRQAPGKGLEWVSSISSGGHYIYYTDSLKGRFIISRDNAKNSVFLQMNNLRAEDTATYYCARERLLRLGVGFDFWGQGSLVTVSS
VL: DIQMTQSPSSLSASEGDRVTMTCRASQSISGYLNWYQQKPGKAPKLLIYAASTLQSGVPSRFSGSSSGTEFTLSISSLQPEDFATYYCQQSYSALYTFGQGTRVEIK
[1]
  binding: binds
[2]
  binding: binds

B6: 14-2E9 (MuSK autoantibody clone from a MuSK MG patient, B cell culture medium) (antibody, V domains shown)
VH: EVQLVESGGGLVQPGGSLRLSCAASGFTFSSYWMHWVRQVPGKGLVWVSRLNEDGSTTNYADSVKGRFTISRDNAKYTLYLQMNSLRFEDTAVYYCVSDLSGKDEHWGQGTLVTVSS
VL: DIVMTQSPLSLPVTPGEPASISCRSTQSLLHSNGYYWLDWYLQKPGQSPQLLVYLGFNRASGVPDRFSGSGSGTDFTLKISRVEAEDVGVYYCMQGLQTPYTFGQGTTLEIK
[2]
  binding: binds

B7: 11-3F6 recombinant IgG1 (bivalent monospecific) (antibody, V domains shown)
VH: EVQLVESGGGLVKPGGSLRLSCAASGFTFSSYTMDWVRQAPGKGLEWVSSIGSNGDYIYYADSVRGRFTISRDNAKNSLYLQMNSLRPDDTADYYCARGQLAVAGTHFDYWGRGSLVTVSS
VL: DIQMTQSPSSLSASVGDRVTISCRASQKVNKYVNWYQQTPGKAPRLLIYAASTLQSGVPSRFSGSGSGANFTLTISGLQPEDFAIYFCQQSYSPLCTFGQGTKLEIK
[3]
  binding: binds

B8: 11-3F6 recombinant IgG4 (bivalent monospecific, homospecific) (antibody, V domains shown)
VH: EVQLVESGGGLVKPGGSLRLSCAASGFTFSSYTMDWVRQAPGKGLEWVSSIGSNGDYIYYADSVRGRFTISRDNAKNSLYLQMNSLRPDDTADYYCARGQLAVAGTHFDYWGRGSLVTVSS
VL: DIQMTQSPSSLSASVGDRVTISCRASQKVNKYVNWYQQTPGKAPRLLIYAASTLQSGVPSRFSGSGSGANFTLTISGLQPEDFAIYFCQQSYSPLCTFGQGTKLEIK
[4]
  binding: binds
[5]
  binding: binds
[3]
  binding: binds

B9: 13-3B5 recombinant IgG1 (bivalent monospecific) (antibody, V domains shown)
VH: QVQLVQSGAVVAKPGASVQVSCKTSGYTFTGQYLHWVRQAPGQGLEWIGWINPSSGVTKFAEKFEGRATMTRDTSITTAYIDLRSLRSDDTATYYCATLSLGVYYVGMVAWGQGTLVTVSS
VL: SYELTQPPSVSVSPGQTATITCSGDGLAQQHVYWFQQRPGQAPLLIIYKDIERPSGIPERFSGSSSGTTAMLTISGVQAEDEADYYCQSGDRTATSVLFGGGTKMTVL
[3]
  binding: binds

B10: 13-3B5 recombinant IgG4 (bivalent monospecific, homospecific) (antibody, V domains shown)
VH: QVQLVQSGAVVAKPGASVQVSCKTSGYTFTGQYLHWVRQAPGQGLEWIGWINPSSGVTKFAEKFEGRATMTRDTSITTAYIDLRSLRSDDTATYYCATLSLGVYYVGMVAWGQGTLVTVSS
VL: SYELTQPPSVSVSPGQTATITCSGDGLAQQHVYWFQQRPGQAPLLIIYKDIERPSGIPERFSGSSSGTTAMLTISGVQAEDEADYYCQSGDRTATSVLFGGGTKMTVL
[4]
  binding: binds
[5]
  binding: binds
[3]
  binding: binds
